Reference: PubChem BioAssay AID2551 (National Center for Advancing Translational Sciences (NCATS), 2010)
In all, about 310,000 compounds went through this assay and about 17,000 (5.5%) were called active. The inconclusive results got no clear call from the source; some entries with a clear call stand among them for comparison. Calls follow the shape of the dose curve; as a rule, active = well fitted inhibition curve with a large enough effect; inconclusive = small, poorly fitted or top-dose-only effect, or effect the other way; inactive = no such curve, though single readings can be large or run the other way. A potency beside an inconclusive call is a rough fit, not a confirmed value.

By UniProt entry, the sequences of proteins in these tests, tags left out. Where a name states a change or a piece, a line headed by the entry shows the natural chain unless it says otherwise.
UniProt P51450: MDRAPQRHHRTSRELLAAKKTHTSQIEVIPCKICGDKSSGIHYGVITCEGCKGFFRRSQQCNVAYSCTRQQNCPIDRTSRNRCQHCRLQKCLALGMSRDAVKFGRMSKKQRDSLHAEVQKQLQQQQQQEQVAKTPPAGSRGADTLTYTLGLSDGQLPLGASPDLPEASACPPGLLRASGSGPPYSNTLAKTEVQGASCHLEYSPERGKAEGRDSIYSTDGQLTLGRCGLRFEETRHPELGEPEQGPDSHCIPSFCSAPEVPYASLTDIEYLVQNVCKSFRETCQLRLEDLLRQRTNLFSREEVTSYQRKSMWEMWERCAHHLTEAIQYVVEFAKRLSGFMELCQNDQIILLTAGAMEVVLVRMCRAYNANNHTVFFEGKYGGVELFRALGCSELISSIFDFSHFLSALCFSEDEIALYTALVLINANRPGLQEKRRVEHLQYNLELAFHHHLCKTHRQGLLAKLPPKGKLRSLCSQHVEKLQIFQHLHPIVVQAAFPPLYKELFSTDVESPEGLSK

What follows are compounds tested against Nuclear receptor ROR-gamma (Mus musculus) (UniProt P51450) (assay: qHTS for inhibitors of ROR gamma transcriptional activity). Settings: Drosophila S2 Gal4-RORgamma UAS-luciferase reporter, 20 h; activity change, negative = inhibition: at 53.6 µM (top of the series).
Method in brief: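 Stable Schneider cell line, Gal4 DNA-binding domain fused to ROR gamma, UAS-luciferase. Cmpd 1 hr RT → CuSO4 700 uM final → 20 hr RT → luciferase reagent 10 min → luminescence.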
% is scaled to controls: 0 for no effect and ±100 for the full control effect; potency is read from the fitted curve at half-maximal effect.
Also: nearly all actives have a fitted effect of over 60% in size.

| Structure (SMILES) | activity change, negative = inhibition | Potency |
| --- | --- | --- |
| O=C(c1ccc(CS(=O)c2cccc(Cl)c2)o1)N1CCN(c2ccccn2)CC1 (stereo not given) | inactive: 1.2% | – |
| Cc1ccc(-c2nc3c4ccccc4ccn3c2CN2CCCCC2)cc1 | – | inconclusive: 28.2 µM [inhibitor, single point] |
| COc1cc(CN(C2CCCCC2)S(=O)(=O)c2ccc(S(=O)(=O)N(C)C3CCCCC3)cc2)cc(OC)c1OC | – | inconclusive: 0.141 µM [activator, partial curve] |
| CCOc1ccc(OCCC(=O)OCC(=O)N2CCN(S(=O)(=O)c3ccc(Cl)cc3)CC2)cc1 | – | active: 11.2 µM |
| CC1(C)C(C=C(Cl)Cl)C1C(=O)N1CCN(c2ccccc2)CC1 (stereo not given) | inactive: -9.66% | – |
| O=S(=O)(c1cccc(Cl)c1)N1CCC(c2nc3ccccc3[nH]2)CC1 | – | inconclusive: 28.2 µM [activator, single point] |
| CCn1c(SCC(=O)Nc2cc(OC)ccc2OC)nnc1C1CCCCC1 | inactive: -19% | – |
| O=S(=O)(CCSc1nc2ccccc2o1)c1nc2ccccc2s1 | – | inconclusive: 22.4 µM [inhibitor, single point] |
| CC(Oc1ccc(Cl)cc1)C(=O)Nc1ccccc1C(=O)N1CCOCC1 (stereo not given) | inactive: 22.1% | – |
| CSC(=NC#N)N1CCN(c2c(C)cccc2C)CC1 | – | active: 11.2 µM |
| CCCCOC(=O)c1ccc(NC(=O)C(=O)NCc2ccncc2)cc1 | – | inconclusive: 17.8 µM [activator, single point] |
| CC(C)CCCC(C)C1CCC2C3CC(=O)[C@H]4CC(O)CC[C@]4(C)C3CC[C@@]12C (stereo not given in full) | inactive: -4.16% | – |
| Cc1cccc(NC(=S)N(CCc2ccncc2)C(C)C)c1C | – | inconclusive: 20 µM [inhibitor, single point] |
| O=C(NNC1=NCCC1)c1cccc(Br)c1 | – | inconclusive: 35.5 µM [inhibitor, single point] |
| O=C(CCNc1ccc(F)cc1)c1cccc([N+](=O)[O-])c1 | – | active: 12.6 µM |
| CC(C)[C@@H](C(=O)NC1CC1)N1C(=O)N2CCc3c([nH]c4ccccc34)[C@@]2(C)C1=O | inactive: -10.2% | – |
| Cc1cnnc2c1-c1nonc1CC2 | – | inconclusive: 35.5 µM [inhibitor, single point] |
| Nc1nc2cc(S(=O)(=O)NC3=NCCCCC3)ccc2s1 | – | inconclusive: 22.4 µM [inhibitor, single point] |
| CCCCCCNC(=O)Nc1ccc(S(=O)(=O)Nc2ccc(CCNC[C@H](O)COc3ccc(O)cc3)cc2)cc1 | – | inconclusive: 14.1 µM [inhibitor, single point] |
| COc1ccc(S(=O)(=O)N2CCCC2C(=O)Nc2ccc(C(C)=O)cc2)cc1 (stereo not given) | – | inconclusive: 11.2 µM [activator, partial curve, poor fit] |
| COc1ccccc1-n1cnc2cc(NCc3ccco3)ccc21 | – | inconclusive: 35.5 µM [inhibitor, single point] |
| O=C(Nc1cccc(-n2cnnn2)c1)C1CCCN(Cc2cccc(C(F)(F)F)c2)C1 (stereo not given) | – | inconclusive: 31.6 µM [activator, single point] |
| CCC(=O)N1CCCC(C(=O)c2ccc(-c3ccccc3)cc2)C1 (stereo not given) | – | inconclusive: 12.6 µM [activator, single point] |

Record cards (already shown). Values in the order: activity change, negative = inhibition | Potency
Cc1cccc(NC(=S)N(CCc2ccncc2)C(C)C)c1C reads – | inconclusive: 20 µM [inhibitor, single point]
COc1ccccc1-n1cnc2cc(NCc3ccco3)ccc21 reads – | inconclusive: 35.5 µM [inhibitor, single point]
CCCCOC(=O)c1ccc(NC(=O)C(=O)NCc2ccncc2)cc1 reads – | inconclusive: 17.8 µM [activator, single point]

The listing continues.

| Structure (SMILES) | activity change, negative = inhibition | Potency |
| --- | --- | --- |
| Cc1c(C(=O)Nc2ccccn2)sc2nc3n(c(=O)c12)CCC3 | – | inconclusive: 35.5 µM [inhibitor, single point] |
| Cc1cc(NC(=O)Nc2ccc3c(ccn3C)c2)sn1 | – | inconclusive: 20 µM [activator, partial curve] |
| COc1ccc2cc3cc(C(=O)N4CCCCCC4)oc3nc2c1 | – | inconclusive: 22.4 µM [inhibitor, single point] |
| O=C(Nc1ccnn1C1CCN(C/C=C/c2ccccc2)CC1)c1ccccc1 | – | inconclusive: 25.1 µM [inhibitor, single point] |
| COc1ccc(C2CC(O)(c3ccccc3)Oc3cc(OC)cc(OC)c32)cc1 (stereo not given) | – | inconclusive: 35.5 µM [inhibitor, single point] |
| COc1cccc(Cn2nnc(C(=O)NCc3ccccc3Cl)c2N)c1 | – | inconclusive: 10 µM [activator, partial curve] |
| O=C(Nc1nc2ccccc2[nH]1)c1ccc(F)c(S(=O)(=O)N2CCOCC2)c1 | – | active: 14.1 µM |
| C=CCNCCCOc1ccc(C)cc1Br | inactive: -6.47% | – |
| COc1ccc(-c2nnc(SCc3ccccn3)n2C)cc1 | inactive: -24.3% | – |
| CC(C)(C)NC(=O)c1cccc(NC(=O)c2ccco2)c1 | – | inconclusive: 0.708 µM [activator, full curve, poor fit] |
| Cc1ccc(CNC(=O)CCCN2C(=S)NC(C)(C)CC2C)cc1 (stereo not given) | – | inconclusive: 22.4 µM [inhibitor, single point] |
| CCc1cc(C(c2ccc(F)cc2)N2CCOCC2)c(NC(=O)c2ccccc2)s1 (stereo not given) | inactive: 15% | – |
| Cn1nnnc1NCc1cccc(Cl)c1Cl | inactive: -8.62% | – |
| O=C(Nc1cc(Sc2ccccn2)cc([N+](=O)[O-])c1)c1cccc(F)c1 | – | inconclusive: 11.2 µM [activator, partial curve] |
| CN1C(=O)C2(c3ccccc31)N(C)CC(c1ccccc1)C21SC(=S)N(Cc2ccco2)C1=O (stereo not given) | – | inconclusive: 0.158 µM [activator, full curve, poor fit] |
| O=C(COc1ccc2ccccc2c1)NNC(=O)C(=O)Nc1ccccc1 | inactive: 8.12% | – |
| N#Cc1c(-c2ccc(Cl)cc2)cc(-c2ccccc2)nc1SCC(=O)O | – | inconclusive: 11.2 µM [activator, partial curve] |
| Nc1c(Cl)c(Cl)nc(C(=O)OCC(=O)NC2CCCCC2)c1Cl | – | inconclusive: 15.8 µM [inhibitor, single point] |
| Cc1cc(=O)[nH]c(N/N=C/C2=C(N3CCOCC3)C(=C\c3ccc(Cl)cc3)/CC2)n1 | – | inconclusive: 20 µM [inhibitor, single point] |
| COc1ccccc1CSc1ncc(-c2ccc([N+](=O)[O-])cc2)[nH]1 | – | inconclusive: 17.8 µM [activator, single point] |
| CCCCNC(=S)N(C)/N=C/c1ccc(OCC(=O)Nc2ccc(OC)cc2)c(OC)c1 | inactive: -1.99% [at 10 µM] | – |
| CC1CCc2c(sc(NC(=O)CN3CCN(C(=O)c4ccco4)CC3)c2C#N)C1 (stereo not given) | – | inconclusive: 17.8 µM [activator, partial curve] |
